# Test results published in PubChem BioAssay (NCATS).
# This list was built around the results that the source calls inconclusive (neither active nor inactive); the mix of calls is not that of the screen. For some of these results: Where the call is inconclusive, the potency comes from a doubtful curve fit. Calls of active or inactive are those of the source. Unless noted, calls follow the shape of the dose curve; as a rule, active = well fitted curve in the direction sought with a large enough effect; inconclusive = small, poorly fitted or top-dose-only effect, or another doubt; inactive = no such curve, though single readings can be large; an effect the other way counts as inactive or inconclusive.
# Assays:
# [1] = Quantitative High-Throughput drug screen in 47 multiple myeloma cell lines against the NCATS MIPE library collection: Karpas417_ECACC cell viability assay (AID 1918961); settings: Karpas417 myeloma viability, CellTiter-Glo ATP luminescence, 48 h; viability (% of DMSO): at 45.8 µM (top of the series)
# Summary of the method: (§1)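 Steps: seed 500 cells per well; pin-transfer MIPE 4.0 library; incubate 48 h at 37C, 5% CO2, humidified; add CellTiter-Glo, 5 min room temperature; read luminescence.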
# [2] = Quantitative High-Throughput drug screen in 47 multiple myeloma cell lines against the NCATS MIPE library collection: KMS27_JCRB cell viability assay (AID 1918970); settings: KMS27 myeloma cells, CellTiter-Glo ATP viability, 48 h; viability (% of DMSO): at 45.8 µM (top of the series); also: nearly all actives have a fitted effect of over 30% in size
# Summary of the method: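 Luminescent ATP read-out (CellTiter-Glo, 5 min at room temperature) after 48 h compound exposure of 500 KMS27_JCRB cells per well; DMSO wells define full viability and media-only wells zero.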
# [3] = Quantitative High-Throughput drug screen in 47 multiple myeloma cell lines against the NCATS MIPE library collection: RPMI8226_ATCC cell viability assay (AID 1919871); also: nearly all actives have a fitted effect of over 30% in size
# Summary of the method: (§2)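 Inhibition of viability over 48 h was scored by ATP content (CellTiter-Glo) in 500-cell wells. Zero and full viability were defined by media-only and DMSO-only wells.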
# [4] = qHTS for identification of novel therapeutic agents for treatment of microphthalmiaassociated transcription factor (MiT) renal cell carcinoma (RCC) (AID 1963991; calls by dose curve); settings: TFE3-RCC UOK109 viability, CellTiter-Glo, 48 h; active = Z-AUC below -0.8 in all three lines
# Summary of the method: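 UOK109/UOK124/UOK145 (TFE3 fusions, three partners); 500 cells/well; MIPE v4.0, 1912 cpds, 11 conc.; 48 h, 37 C; CellTiter-Glo, 15 min RT; lum. Norm.: DMSO 100%, empty 0%.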
# [5] = qHTS of pediatric cancer cell lines to identify multiple opportunities for drug repurposing: Confirmatory screen for control Hh wild type fibroblast cells (AID 1347121); also: nearly all actives have a fitted effect of over 70% in size
# Summary of the method: (§3)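 Cells (500-1,000/well) rested 5 h, then received compounds for 48 h; metabolically active cells were measured by CellTiter-Glo luminescence. Final concentrations spanned up to 46 µM (MIPE, 11-point) or 0.59 nM-46 µM (NPC, 8-point) in primary screens, 11-point in follow-ups.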
# [6] = qHTS of pediatric cancer cell lines to identify multiple opportunities for drug repurposing: Confirmatory screen for RD cells (AID 1347124); settings: RD rhabdomyosarcoma cell viability; activity change, negative = cytotoxic: at 45.9 µM (top of the series) unless noted;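 also: cells exposed to compound for 48 h before viability readout; nearly all actives have a fitted effect of over 65% in size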
# Summary of the method: as §3
# [7] = qHTS of pediatric cancer cell lines to identify multiple opportunities for drug repurposing: Confirmatory screen for Rh30 cells (AID 1347126); settings: Rh30 rhabdomyosarcoma cell viability; activity change, negative = cytotoxic: at 45.9 µM (top of the series); also: nearly all actives have a fitted effect of over 55% in size
# Summary of the method: as §3
# [8] = qHTS of pediatric cancer cell lines to identify multiple opportunities for drug repurposing: Confirmatory screen for Saos-2 cells (AID 1347127); also: nearly all actives have a fitted effect of over 60% in size
# Summary of the method: as §3
# [9] = Quantitative High-Throughput drug screen in 47 multiple myeloma cell lines against the NCATS MIPE library collection: KMS34_JCRB cell viability assay (AID 1918985); also: nearly all actives have a fitted effect of over 40% in size
# Summary of the method: as §2
# [10] = Quantitative High-Throughput drug screen in 47 multiple myeloma cell lines against the NCATS MIPE library collection: SKMM1_PLB cell viability assay (AID 1919863); settings: SKMM1 myeloma viability, CellTiter-Glo ATP, 48 h; viability: stronger effect = lower value; also: nearly all actives have a fitted effect of over 35% in size
# Summary of the method: as §2
# [11] = Quantitative High-Throughput drug screen in 47 multiple myeloma cell lines against the NCATS MIPE library collection: KMS28BM_JCRB cell viability assay (AID 1919874); also: nearly all actives have a fitted effect of over 35% in size
# Summary of the method: as §2
# [12] = Quantitative High-Throughput drug screen in 47 multiple myeloma cell lines against the NCATS MIPE library collection: KMS12PE_JCRB cell viability assay (AID 1918972); also: nearly all actives have a fitted effect of over 30% in size
# Summary of the method: as §1
# [13] = qHTS of pediatric cancer cell lines to identify multiple opportunities for drug repurposing: Confirmatory screen for BT-12 cells (AID 1347112); also: nearly all actives have a fitted effect of over 55% in size
# Summary of the method: as §3
# [14] = qHTS of pediatric cancer cell lines to identify multiple opportunities for drug repurposing: Confirmatory screen for NB-EBc1 cells (AID 1347115);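 also: cells exposed to compound for 48 h before the viability read; nearly all actives have a fitted effect of over 45% in size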
# Summary of the method: as §3
# [15] = tested on: Zika virus NS2B-NS3 protease; assay: Primary screen GU AMC qHTS for Zika virus inhibitors (AID 1347154); also: nearly all actives have a fitted effect of over 70% in size
# Summary of the method: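 Fluorogenic AMC-substrate cleavage by noncovalent NS2B-NS3 protease complex (25 nM, pH 8.0 Tris buffer with Tween 20) followed for 15 minutes at room temperature (~20% conversion). Percent inhibition from ex340/em450 signal change, fitted by 4-parameter Hill equation.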
# [16] = Quantitative High-Throughput drug screen in 47 multiple myeloma cell lines against the NCATS MIPE library collection: KMS12BM_JCRB cell viability assay (AID 1918971); also: nearly all actives have a fitted effect of over 35% in size
# Summary of the method: as §1
# [17] = Quantitative High-Throughput drug screen in 47 multiple myeloma cell lines against the NCATS MIPE library collection: OCIMY1_PLB cell viability assay (AID 1918979); also: nearly all actives have a fitted effect of over 35% in size
# Summary of the method: as §2
# [18] = S16 Schwann cell viability assay (CellTiter-Glo assay) (AID 624031); also: nearly all actives have a fitted effect of over 70% in size
# Summary of the method: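 Concentration-effect curves come from CellTiter-Glo luminescence of S16 rat Schwann cells after 24 h compound exposure. Each reading was normalized to DMSO wells (0%) and wells without cells, and curves were ranked by r2 and response magnitude.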
# [19] = molecular target: Luciferin 4-monooxygenase (Photinus pyralis) (UniProt P08659); assay: Primary firefly luciferase (FLuc) qHTS assay for identification of artifact compounds. (AID 1845220); also: nearly all actives have a fitted effect of over 60% in size
# Summary of the method: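 Cell-free, 1536-well qHTS. Buffer pH 7.6 with 0.01% Tween-20 and 0.05% BSA; 10 uM D-luciferin, 10 uM ATP; 10 nM P. pyralis luciferase; luminescence after 5 min.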
# DIV30 = assay: qHTS profiling for inhibitors of Plasmodium falciparum proliferation (AID 504749); also: nearly all actives have a fitted effect of over 60% in size; settings: P. falciparum in erythrocytes, SYBR Green DNA, 72 h; series mostly up to 28.7 µM
# Summary of the method: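 Infected RBCs, 0.3% parasitemia/2.5% Hct final; cpd 72 h, 37 C, 5% CO2; lysis buffer with saponin/triton/SYBR Green I, o/n RT dark; FI 485/535; norm. to artemisinin (0.29 uM) and DMSO.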
# Potency is read from the fitted curve at half-maximal effect.
structure (smiles),measurement,setting,value
O=C(CCCCCCC(=O)Nc1cccnc1)NO,Potency,[1],"inconclusive: 1.32 µM [cytotoxic, full curve, poor fit]"
same,Potency,[2],active: 7.43 µM
same,Potency,[3],active: 16.6 µM
same,Potency,[4],"inconclusive: 18.7 µM [falling, partial curve]"
C[C@H](NCc1ccc2c(c1)nc(NC(=O)c1ccc(-c3cn[nH]c3)s1)n2CCc1ccccc1)C(C)(C)C,Potency,[5],active: 10.4 µM
same,Potency,[6],active: 1.17 µM
same,Potency,[7],active: 4.14 µM
same,Potency,[8],active: 1.47 µM
same,Potency,[1],"inconclusive: 37.2 µM [rising, partial curve, poor fit]"
same,Potency,[9],active: 1.05 µM
same,Potency,[10],active: 2.96 µM
same,Potency,[11],active: 0.833 µM
same,Potency,[4],"inconclusive: 3.32 µM [falling, full curve]"
CCNC(=O)Nc1ccc(-c2nc3c(c(N4CCOC[C@H]4C)n2)CCN(C2COC2)C3)cc1,Potency,[1],active: 0.0833 µM
same,Potency,[12],active: 5.26 µM
same,Potency,[10],active: 0.935 µM
same,Potency,[3],active: 0.743 µM
same,Potency,[11],active: 0.526 µM
Cc1nc(N)nc(N)c1-c1ccc(Cl)c(Cl)c1,Potency,[13],"inconclusive: 0.928 µM [cytotoxic, full curve]"
same,Potency,[14],"inconclusive: 0.737 µM [cytotoxic, full curve]"
same,Potency,[5],inactive
same,Potency,[6],active: 2.61 µM
same,Potency,[7],inactive
same,Potency,[8],"inconclusive: 7.37 µM [cytotoxic, partial curve]"
Nc1cccc(-c2cc3c(Oc4cccc(O)c4)ncnc3[nH]2)c1,Potency,[15],"inconclusive: 42.9 µM [inhibitor, single point]"
same,Potency,[2],"inconclusive: 0.0012 µM [rising, full curve, poor fit]"
same,Potency,[16],active: 20.9 µM
same,Potency,[17],inactive
same,Potency,[9],active: 18.7 µM
same,Potency,[10],"inconclusive: 26.4 µM [cytotoxic, single point]"
same,Potency,[3],"inconclusive: 20.9 µM [cytotoxic, partial curve, poor fit]"
same,Potency,[11],active: 20.9 µM
same,Potency,[4],"inconclusive: 0.332 µM [falling, full curve]"
O=C(CCN1CCC(c2ccccc2)C1)c1ccc2c(c1)OCCO2 (stereo not given),Potency,[18],active: 28.7 µM
Cc1cccc(C)c1NC(=O)CN1CCCC1,Potency,[18],inactive
CN1CCN(Cc2ccc(-c3cnc4[nH]cc(-c5ccc6[nH]ccc6c5)c4c3)cc2)CC1,Potency,[19],active: 6.75 µM
CC(C)=CCNc1ncnc2c1ncn2[C@@H]1O[C@H](CO)[C@@H](O)[C@H]1O,Potency,[15],inactive
C/C(=C(/OCCOc1ccc(Cl)cc1)c1ccc(Cl)cc1Cl)n1ccnc1,Potency,[15],"inconclusive: 25.6 µM [inhibitor, partial curve, poor fit]"
CCCCN1CCCC1C(=O)Nc1c(C)cc(C)cc1C (stereo not given),Potency,DIV30,inactive
C[C@H]1[C@@H](OC(=O)CCC(=O)O)O[C@@H]2O[C@@]3(C)CC[C@@H]4[C@H](C)CC[C@@H]1[C@@]24OO3,Potency,[13],"inconclusive: 1.65 µM [cytotoxic, full curve]"
same,Potency,[6],active: 1.04 µM
same,Potency,[7],"inconclusive: 0.117 µM [cytotoxic, single point]"
same,Potency,[8],active: 1.31 µM
same,Potency,[1],"inconclusive: 7.43 µM [cytotoxic, partial curve, poor fit]"
same,Potency,[2],"inconclusive: 0.372 µM [cytotoxic, full curve, poor fit]"
same,Potency,[16],active: 5.26 µM
same,Potency,[3],"inconclusive: 2.96 µM [cytotoxic, partial curve]"
C=C1C(=O)O[C@H]2CC(=C)[C@H]3CC[C@@](C)(O)[C@@H]3CC12 (stereo not given in full),Potency,[19],"inconclusive: 26.9 µM [inhibitor, single point]"
O=C(N/N=C/c1ccccc1O)c1ccncc1,Potency,[18],"inconclusive: 22.8 µM [cytotoxic, partial curve, poor fit]"
same,Potency,DIV30,"inconclusive: 19 µM [inhibitor, single point]"
C=C[C@@]1(C)CC(=O)[C@]2(O)[C@@]3(C)[C@@H](O)CCC(C)(C)[C@@H]3[C@H](O)[C@H](OC(C)=O)[C@@]2(C)O1,Potency,[18],"inconclusive: 28.7 µM [cytotoxic, partial curve, poor fit]"
same,Potency,[13],"inconclusive: 36.9 µM [cytotoxic, single point]"
same,Potency,[14],inactive
same,Potency,[6],"inconclusive: 26.1 µM [cytotoxic, single point]"
same,Potency,[7],"inconclusive: 20.8 µM [cytotoxic, single point]"
same,Potency,[8],"inconclusive: 26.1 µM [cytotoxic, single point]"
same,Potency,DIV30,inactive
CC#C[C@@H](CC(=O)O)c1ccc(OCc2cccc(-c3ccc(C(F)(F)F)cc3)c2)cc1,Potency,[19],"inconclusive: 23.9 µM [inhibitor, single point]"
CCCCOc1ccc(CC(=O)NO)cc1,Potency,[5],inactive
same,Potency,[6],inactive
same,Potency,[7],"inconclusive: 29.3 µM [cytotoxic, single point]"
same,Potency,[12],active: 23.5 µM
same,Potency,[17],"inconclusive: 13.2 µM [cytotoxic, partial curve, poor fit]"
same,Potency,[9],"inconclusive: 11.8 µM [cytotoxic, partial curve]"
same,Potency,[10],"inconclusive: 5.9 µM [cytotoxic, partial curve, poor fit]"
same,Potency,[3],"inconclusive: 14.8 µM [cytotoxic, partial curve, poor fit]"
same,Potency,[4],"inconclusive: 23.5 µM [falling, partial curve]"
same,Potency,DIV30,active: 2.56 µM
CC1CCC2C(=CCC(O)C2(C)C)C1(C)Cc1c(O)cc(CO)c(C=O)c1O (stereo not given),Potency,[19],inactive
CN(C/C=C/c1ccccc1)Cc1cccc2ccccc12,Potency,[15],"inconclusive: 20.3 µM [inhibitor, partial curve, poor fit]"

# Six records drawn at random from those above:
structure (smiles),measurement,setting,value
CC(C)=CCNc1ncnc2c1ncn2[C@@H]1O[C@H](CO)[C@@H](O)[C@H]1O,Potency,[15],inactive
CCNC(=O)Nc1ccc(-c2nc3c(c(N4CCOC[C@H]4C)n2)CCN(C2COC2)C3)cc1,Potency,[12],active: 5.26 µM
Cc1nc(N)nc(N)c1-c1ccc(Cl)c(Cl)c1,Potency,[8],"inconclusive: 7.37 µM [cytotoxic, partial curve]"
C[C@H]1[C@@H](OC(=O)CCC(=O)O)O[C@@H]2O[C@@]3(C)CC[C@@H]4[C@H](C)CC[C@@H]1[C@@]24OO3,Potency,[7],"inconclusive: 0.117 µM [cytotoxic, single point]"
CCCCOc1ccc(CC(=O)NO)cc1,Potency,[4],"inconclusive: 23.5 µM [falling, partial curve]"
C[C@H]1[C@@H](OC(=O)CCC(=O)O)O[C@@H]2O[C@@]3(C)CC[C@@H]4[C@H](C)CC[C@@H]1[C@@]24OO3,Potency,[13],"inconclusive: 1.65 µM [cytotoxic, full curve]"
